According to the supplement of paper PMC7052299:
The list shows a part of the results. Most values come without repeats; read them as rough.

System: Danio rerio embryo (th-expressing DA/NA neurons)
Assay: percentage of embryos with altered th expression (decrease or increase vs DMSO control) in brain region; higher = more embryos with altered dopaminergic/noradrenergic marker expression; extreme values may be limits of the assay
Conditions: treatment window: 24-72 hpf, fixed 96 hpf
Protocol: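 Primary screen in zebrafish embryos (AB/TL). Embryos were treated with each compound at 1, 3, 10 or 30 µM in E3/PTU with 1% DMSO from 24 to 72 hpf, washed out, and fixed at 96 hpf. th (tyrosine hydroxylase) expression was scored by whole-mount in situ hybridization per DA/NA brain region (strong decrease, decrease, normal, increase, strong increase), with 7-16 embryos per treatment and no independent replicates. The value is the percentage of scored embryos whose th expression was altered (decrease or increase) relative to DMSO controls.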

Measured: percentage of embryos with altered th expression

COc1cc2c(NC3CCN(CC4CCCCC4)CC3)nc(N3CCCN(C(C)C)CC3)nc2cc1OCCCN1CCCCC1
0%: 1 µM, brain region: DC1 | 1 µM, brain region: DC2 | 1 µM, brain region: DC3 | 1 µM, brain region: DC 4,5,6 | 1 µM, brain region: LC | 1 µM, brain region: MO | 1 µM, brain region: Pretectum | 1 µM, brain region: telencephalon | 10 µM, brain region: DC1 | 10 µM, brain region: DC2 | 10 µM, brain region: DC3 | 10 µM, brain region: DC 4,5,6 | 10 µM, brain region: LC | 10 µM, brain region: MO | 10 µM, brain region: Pretectum | 10 µM, brain region: telencephalon
22.2%: 30 µM, brain region: DC1 | 30 µM, brain region: DC2 | 30 µM, brain region: DC3 | 30 µM, brain region: DC 4,5,6 | 30 µM, brain region: LC | 30 µM, brain region: MO | 30 µM, brain region: Pretectum | 30 µM, brain region: telencephalon
20%: 3 µM, brain region: DC1 | 3 µM, brain region: DC2 | 3 µM, brain region: DC3 | 3 µM, brain region: DC 4,5,6 | 3 µM, brain region: LC | 3 µM, brain region: MO | 3 µM, brain region: Pretectum | 3 µM, brain region: telencephalon
